Test results: patent US9278920B2, “Pleuromutilin derivatives for use in the treatment of diseases mediated by microbes” (Nabriva Therapeutics AG, priority 2010, dated 2016)
Some of these results come from one statement about several compounds together. For at least one compound, name, drawing or mass did not settle the structure.

Legend:
[1] = test system: Streptococcus pneumoniae ATCC49619; assay: MIC by Agar Dilution Test or Microdilution Test (CLSI M7-A7); format: cell-based; conditions: in vitro; strain ATCC49619
Experimental: (§1) The in vitro activity against aerobic bacteria was determined by Agar Dilution Test or Microdilution Test according to the Clinical and Laboratory Standards Institute (CLSI, former NCCLS) Document M7-A7 Vol. 26, No. 2: “Methods for Dilution Antimicrobial Susceptibility Tests for Bacteria that Grow Aerobically—Approved Standard; Seventh Edition (2006)”; and the test against anaerobic bacteria was performed according to the Clinical and Laboratory Standards Institute (CLSI, former NCCLS), Document, M11-A6, Vol. 24, No. 2: “Methods for Antimicrobial Susceptibility Testing of Anaerobic Bacteria—Approved Standard; Sixth Edition (2004)” and the in vivo activity was tested by the septicemia mouse model against Staphylococcus aureus.

[2] = test system: Staphylococcus aureus ATCC49951; assay: as above; format: cell-based; conditions: in vitro; strain ATCC49951
Experimental: as §1

**Q.** Which “MIC against Streptococcus pneumoniae ATCC49619” value [1] does the source give for C=CC1(C)CC(OC(=O)CSC2CCC3C(NC(C)=O)CCC23O)C2(C)C(C)CCC3(CCC(=O)C32)C(C)C1O (centres unmarked) [Example 17, 14-O-{[4-Acetylamino-6a-hydroxy-octahydropentalen-1-ylsulfanyl]-acetyl}-mutilin] here?
**A.** ≤ 2 µg/mL

**Q.** And the “MIC against Staphylococcus aureus ATCC49951” value [2]?
**A.** ≤ 2 µg/mL
